Patent US20230391837A1
Read-outs that look alike come from different tables or passages of the source. These are yes or no findings as the source states them, for the method shown. Some entries that bind do so weakly or less than the wild type.

How the values were obtained:
[1] = target: T1, podoplanin (PDPN) receptor on HSC2 human oral squamous cell carcinoma cells (human) (UniProt Q86YL7); experiment: confocal microscopy, fluorescent MASL 2 min on HSC2 cells, PDPN antibody stain
T1 sequence (looked up): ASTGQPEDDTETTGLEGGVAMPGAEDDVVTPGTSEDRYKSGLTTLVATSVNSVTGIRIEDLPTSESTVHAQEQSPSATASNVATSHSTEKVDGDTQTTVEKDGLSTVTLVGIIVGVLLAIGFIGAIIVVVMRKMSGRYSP

[2] = target: T1, podoplanin (PDPN) receptor on HSC2 human oral squamous cell carcinoma cells (human); experiment: confocal microscopy, fluorescent MASL on HSC2 cells (FIG. 4)
[3] = target: T1, podoplanin (PDPN) receptor on HSC2 human oral squamous cell carcinoma cells (human)

Measured: binding

B1: Maackia amurensis seed lectin (MASL) (protein)
chain: SDELSFTINNFVPNEADLLFQGEASVSSTGVLQLTRVENGQPQQYSVGRALYAAPVRIWDNTTGSVASFSTSFTFVVKAPNPTITSDGLAFFLAPPDSQIPSGRVSKYLGLFNNSNSDSSNQIVAVEFDTYFGHSYDPWDPNYRHIGIDVNGIESIKTVQWDWINGGVAFATITYLAPNKTLIASLVYPSNQTSFIVAASVDLKEILPEWVRVGFSAATGYPTQVETHDVLSWSFTSTLEANCDAATEN
binds: all assays above
